The values below come from US20110182905A1.

By UniProt entry, the sequences of proteins in these tests, tags left out. Where a name states a change or a piece, a line headed by the entry shows the natural chain unless it says otherwise.
UniProt P04141: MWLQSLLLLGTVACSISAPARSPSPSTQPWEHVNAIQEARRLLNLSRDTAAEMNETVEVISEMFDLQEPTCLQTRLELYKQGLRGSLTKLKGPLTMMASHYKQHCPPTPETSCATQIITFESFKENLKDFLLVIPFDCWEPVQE

In this test the target is recombinant hGM-CSF derived from yeast (Leukine, Berlex) (human) (UniProt P04141). The test can be described thus: SPR (Biacore). (In general: SPR reads the build-up and loss of mass on a sensor chip optically.)

No constants are given. Whether binding was seen depends on the method and setting. Some results given as binding are weak or reduced against the parent protein; the word gives no strength.

B1: EV1019 (antibody, human IgG1, lambda, V domains shown)
VH: QAQLVESGGGVVKPGGSLRLSCISSKFTFSSHAMHWVRQAPGKGLEWVAVIWHDGSKKYYADSVKGRFSVSRDNSKNTLFLQMDSLRAEDTAVYFCGKEWVGGTCDSWGQGTLVIVSS
VL: QPALTQEASVSGTVGQTVTLLCSGNSSNIGSYAVGWYQQISRGAPKIVVFGKSPASGIPDRFSGSKSGTTASLLVSGLQPEDEADYYCSTWDSRLSAVLFGGGTKLTVLR
For the molecule B1, the binding result was “binds”.
